Consider 19 sequences from patent US20110046207.

Chains of the proteins cited; added tags and fusions are not shown. A line that says so, or that is headed by a name, gives the form on record, which may keep a tag or linker.
human complement C5 (alpha and beta chain) (Homo sapiens), one chain, as listed by the source: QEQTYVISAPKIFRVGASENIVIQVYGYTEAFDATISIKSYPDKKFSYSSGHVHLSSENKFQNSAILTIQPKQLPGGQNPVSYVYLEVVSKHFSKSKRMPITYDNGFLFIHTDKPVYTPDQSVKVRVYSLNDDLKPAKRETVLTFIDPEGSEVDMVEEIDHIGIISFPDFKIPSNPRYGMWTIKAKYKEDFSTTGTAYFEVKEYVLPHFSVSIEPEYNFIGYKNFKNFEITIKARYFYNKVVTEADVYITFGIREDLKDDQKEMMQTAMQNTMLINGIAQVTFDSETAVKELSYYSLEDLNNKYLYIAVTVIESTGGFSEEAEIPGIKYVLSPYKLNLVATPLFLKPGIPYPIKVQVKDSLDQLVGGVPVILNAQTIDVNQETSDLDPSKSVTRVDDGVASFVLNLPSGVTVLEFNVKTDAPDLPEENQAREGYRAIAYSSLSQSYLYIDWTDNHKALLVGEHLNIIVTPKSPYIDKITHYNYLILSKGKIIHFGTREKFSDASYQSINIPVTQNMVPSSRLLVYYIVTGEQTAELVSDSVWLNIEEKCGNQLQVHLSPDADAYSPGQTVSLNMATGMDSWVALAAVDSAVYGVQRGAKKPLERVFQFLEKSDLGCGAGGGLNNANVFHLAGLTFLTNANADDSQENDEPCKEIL

The exact form of at least one protein or probe is not confirmed. For some of these results: No signal at the amounts used counts as a negative. For some of these results: Tags and fusion partners may be left off the protein sequences shown.

The target of data set [1] is T1, human C5a (natural L-C5a) (Homo sapiens) (UniProt P01031).
T1 sequence: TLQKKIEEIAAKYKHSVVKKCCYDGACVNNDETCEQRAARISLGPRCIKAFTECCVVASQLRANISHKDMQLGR
The data set is described as follows: activity in cells. Particulars: L-RNA, purified recombinant protein, protein details: recombinant, mirror-image nucleic acid.

The target of data set [2] is T1, human C5a (natural L-C5a) (Homo sapiens). The data set can be described thus: activity assay. Particulars: L-RNA, 5'-40 kDa PEG, purified recombinant protein, protein details: recombinant, mirror-image nucleic acid.
Data set [3] relates to T2, rhesus monkey C5a (His6-macC5a) (Macaca mulatta).
T2 sequence: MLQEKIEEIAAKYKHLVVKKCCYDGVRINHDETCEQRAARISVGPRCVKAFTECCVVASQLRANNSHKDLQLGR
The data set can be described thus: activity in cells. The settings on record: L-RNA, purified recombinant protein, protein details: His6, E. coli BL21, refolded, mirror-image nucleic acid.

Data set [4] has as its system human complement C5 (alpha and beta chain) (Homo sapiens). The data set can be described thus: filter binding. The settings on record: L-RNA with two 5' D-guanosines, 37 C, comparable to C5a binding, purified native protein, protein details: from human blood, Sigma Aldrich C3160, label: 5'-32P, mirror-image nucleic acid.

On to “GGCUGAACACGCCGCGUAGGACCCAAUGGGUAGAAUGGGCAGCC [179-A3-014 Spiegelmer]”, for which the half-maximal inhibitory concentration (IC50) in data set [1] (U937 chemotaxis, variant of 179-A3-014) turned out to be 0.9 nM.

Take “GGGGCGUGUUUACUUGCUUAAUAGGGGGCCCC [185-H3-014-5'-PEG Spiegelmer]”: the “functional effect of the aptamer” value was “active” in data set [2] (attenuates C5a-induced neutropenia in gerbils at 10 mg/kg, not 2 mg/kg, variant of 185-H3-014) and “not active” in data set [3] (5'-40 kDa PEG, 100 nM Spiegelmer, no inhibition, variant of 185-H3-014). Besides, the IC50 in data set [1] (5'-40 kDa PEG, U937 chemotaxis, 0.1 nM C5a, variant of 185-H3-014) worked out at 1.5 nM.

With “GGGCUGGGCGUGUUUACUUGCUUAAUAGGGGGCCCAGC [gg-185-H3-001]”, the binding result in data set [4] (variant of 185-H3-001 Spiegelmer) is recorded as “binds”.

“GUGCUGAACACGCCGCGUAGGACUUCAAUGGAGUAGAAUGGGCAGCAC [179-A3 Spiegelmer]”: the IC50 in data set [1] (U937 chemotaxis, 0.1 nM C5a, variant of 179-A3) amounted to 0.9 nM.

For “GCGCUUGUCCGAUUGGCGGCACCCUCGGGACUGGGGAGCGC [172-D7-013-5'-PEG Spiegelmer]”, the IC50 in data set [1] (5'-40 kDa PEG, C18-PEG spacer after nt 25, U937 calcium release, variant of 172-D7-013) stood at 6.5 nM.

For the sequence “GCUGGGCGUGUUUACUUGCUUAAUAGGGGGCCCAGC [185-H3-001-5'-PEG Spiegelmer]”, the IC50 in data set [1] (5'-40 kDa PEG, U937 chemotaxis, 0.1 nM C5a, variant of 185-H3-001 Spiegelmer) turned out to be 3.2 nM.

For the sequence “GUACUGCGUUCGGACGUGGCAUGUUCCUUGACAAACGGUUGGCAGUAC [182-E5 Spiegelmer]”, the IC50 in data set [1] (U937 chemotaxis, 0.1 nM C5a, variant of 182-E5) amounted to 1.2 nM.

With “GGGGGGCGUGUUUACUUGCUUAAUAGGGGGCCCC [gg-185-H3-014]”, the binding result in data set [4] (variant of 185-H3-014) is on record as “binds”.

For “GGGGCUGAACACGCCGCGUAGGACCCAAUGGGUAGAAUGGGCAGCC [gg-179-A3-014]”, in data set [4] (variant of 179-A3-014 Spiegelmer), the binding result was “binds”.

As for “GGGCUGAACACGCCGCGUAGGACCCAAUGGGUAGAAUGGGCAGC [gg-179-A3-015]”, the binding result in data set [4] (variant of 179-A3-015) is recorded as “binds”.

For the sequence “GGGUACUGCGUUCGGACGUGGCAUGUUCCUUGACAAACGGUUGGCAGUAC [gg-182-E5]”, the binding result in data set [4] (variant of 182-E5 Spiegelmer) is reported as “binds”.

Turning to “GCUGGGCGUGUUUACUUGCUUAAUAGGGGGCCCAGC [185-H3-001 Spiegelmer]”, the “functional effect of the aptamer” value in data set [3] (100 nM Spiegelmer, no inhibition, variant of 185-H3-001) is on record as “not active”.

In the case of “CCCCGGGGGAUAAUUCGUUCAUUUGUGCGGGG [185-H3-014-REVERSE-5'-PEG Spiegelmer]”, the “functional effect of the aptamer” value in data set [2] (reverse sequence, stated not to bind C5a, no effect on neutropenia, variant of 185-H3-014-5'-PEG Spiegelmer, dose not given here) was “not active”.

Turning to “GGGGGCGUGUUUACUUGCUUAAUAGGGGGCCC [gg-185-H3-003]”, the binding result in data set [4] (variant of 185-H3-003) was “binds”.

Regarding “GGCUGAACACGCCGCGUAGGACCCAAUGGGUAGAAUGGGCAGCC [179-A3-014-5'-PEG Spiegelmer]”, the IC50 in data set [1] (5'-40 kDa PEG, U937 chemotaxis, 0.1 nM C5a, variant of 179-A3-014 Spiegelmer) is 1.8 nM. For the same sequence, in data set [3] (5'-40 kDa PEG, 100 nM Spiegelmer completely blocks chemotaxis to 0.8 nM monkey C5a, variant of 179-A3-014 Spiegelmer), the “functional effect of the aptamer” value is reported as “active”.

Turning to “GGUGGGCGUGUUUACUUGCUUAAUAGGGGGCCCA [gg-185-H3-002]”, the binding result in data set [4] (variant of 185-H3-002) is given as “binds”.

For “GGAGCGUGCUUGUCCGAUUGGCGGCACCCUUGCGGGACUGGGGAGUACGCU [gg-172-D7-000]”, the binding result in data set [4] (variant of 172-D7-000 Spiegelmer) was “binds”.

In the case of “GGGCGCUUGUCCGAUUGGCGGCACCCUCGGGACUGGGGAGCGC [gg-172-D7-013]”, the binding result in data set [4] (C18-PEG spacer after nt 27, variant of 172-D7-013) was “binds”.

For the sequence “GGGUGCUGCGUUCGGACGUGGCAUGUUCCUUGACAAACGGUUGGCAGCAC [gg-182-C5]”, the binding result in data set [4] (variant of 182-C5) is “binds”.

By IC50 is commonly meant the concentration that inhibits the measured activity by half.
